# Measured data: PubChem BioAssay AID686943 (Drosophila RNAi Screening Center, 2013)
# Purpose: 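Fly genes whose loss alters ERK activation after insulin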 (primary screen)
# Cells: Drosophila S2R+ haemocyte-like cells expressing YFP-tagged ERK (Rolled)
# Reagent: long dsRNA against Drosophila genes
# Challenge: insulin stimulation versus unstimulated cells; dose and duration not given
# Detection: 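Per-plate z-scores of phospho-ERK immunostaining normalised to YFP-tagged ERK, measured with and without insulin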
# Scale: replicate 1, z-score of dpERK with insulin and replicate 2, z-score of dpERK with insulin: higher = more active ERK per ERK-YFP after insulin; replicate 1, z-score of dpERK under basal conditions: higher = more basal active ERK per ERK-YFP
# The deposit covers about 23,000 reagents; shown is an unselected part of those with a known target gene and a result. 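Extra replicates exist only for a retested subset of genes; insulin dose and duration not given; both raised and lowered dpERK matter.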 Names joined by + are all predicted targets of the reagent. Further read-outs or replicates are left out here. No sequences are given here. The record does not give: the amount of reagent, the time to read-out.
target gene,dsRNA,"replicate 1, z-score of dpERK with insulin","replicate 2, z-score of dpERK with insulin","replicate 1, z-score of dpERK under basal conditions"
Spf30,DRSC11976,-0.45,0.97,-1.06
CG33172,DRSC21793,0.49,0.55,-0.19
CR14033,DRSC02358,1.16,0.52,-0.07
lncRNA:CR43270,DRSC11575,-0.39,0.24,0.42
Obp49a,DRSC22562,-0.2,0.1,0.06
Atg7,DRSC05741,-1.34,-2.04,-3.35
Atg7,DRSC06937,-0.26,-0.53,-0.77
CG13154,DRSC06279,1.7,0.49,-0.61
Ir87a,DRSC14836,1.03,-1.65,-0.57
CG42853,DRSC09534,1.06,0.79,2.18
AP-2alpha,DRSC00800,1.22,1.42,1.07
CCT3,DRSC16602,-1.7,-1.07,-0.2
Send2,DRSC01906,0.79,-0.41,0.35
CG2246,DRSC15433,-0.15,-0.99,-0.18
CG15594,DRSC12280,-0.19,-0.56,-0.23
wry,DRSC00352,0.42,-0.07,-0.26
wry,DRSC00456,0.98,0.61,1.4
wry,DRSC22414,0.92,0.26,-1.07
Fa2h,DRSC06608,0.06,0.02,-0.3
Fa2h,DRSC06609,0.33,-0.17,0.62
CG6163,DRSC10595,0.2,0.82,-0.73
Acp36DE,DRSC01860,-0.03,-0.44,0.23
ClpP,DRSC02806,-0.49,-0.29,0.68
bai,DRSC14388,0.44,0,0.24
pelo,DRSC03588,-0.11,-0.13,-0.46
Lcp1,DRSC07455,0.33,0.18,-0.58
spdo,DRSC13988,0.66,0.2,0.15
CG10254,DRSC14153,-0.59,-0.07,0.45
Nelf-A,DRSC15903,0,0.86,-0.27
nompA,DRSC06329,-0.27,-0.34,-0.55
wds,DRSC18852,-0.19,0.21,-1.2

Targets above whose gene name begins with L or l:
target gene,dsRNA,"replicate 1, z-score of dpERK with insulin","replicate 2, z-score of dpERK with insulin","replicate 1, z-score of dpERK under basal conditions"
lncRNA:CR43270,DRSC11575,-0.39,0.24,0.42
Lcp1,DRSC07455,0.33,0.18,-0.58

Additional reagents follow:
target gene,dsRNA,"replicate 1, z-score of dpERK with insulin","replicate 2, z-score of dpERK with insulin","replicate 1, z-score of dpERK under basal conditions"
Nepl21,DRSC14133,-1.58,-0.42,-0.01
glo,DRSC16145,-1.91,-1.2,-0.65
CG7551,DRSC10876,-1.09,-0.43,0.06
ZnT35C,DRSC01959,-1.14,0.03,0.2
l(3)80Fg,DRSC21645,-0.87,-0.32,1.46
l(3)80Fg,DRSC22171,0.23,0.87,0.92
SmydA-8,DRSC18797,1.22,-1.31,1.44
SmydA-8,DRSC22064,0.3,0.54,-0.09
SmydA-8,DRSC22263,-1.24,0.39,0.25
CG1513,DRSC05194,-0.5,-0.31,-0.84
CG1513,DRSC06553,-2.53,-0.85,-0.59
CG1513,DRSC06554,0.08,0.14,-0.56
CG30088,DRSC21764,-0.6,0.53,-0.92
Prat2,DRSC09692,0.78,0.5,-0.51
Spn38F,DRSC03616,0.99,0.23,0.55
CG11381,DRSC17780,-1.08,-2.14,1.17
CG17751,DRSC15261,1.51,-0.19,-0.55
CG17751,DRSC22837,0.32,-0.18,-0.77
CG31908,DRSC21864,0.16,1.68,-0.6
CG16787,DRSC04282,0.18,-0.58,0.11
CG15120,DRSC06542,0.11,-0.63,0.63
Pgant7,DRSC19991,0.01,0.12,0.19
CG10799,DRSC06002,-0.08,-1.08,-0.4
Pde11,DRSC02028,1.24,1.63,-1.04
Pde11,DRSC02460,2.47,2.7,1.67
CG8191 + CG12379,DRSC19451,-0.5,0.36,-0.23
